Measured values from the supplement of paper PMC10849652.
This is one part of the list.

Sequences of proteins named here, by UniProt entry; tags and fusion partners are left off. A change or cut given only in a name is not applied to a line headed by its entry.
UniProt Q8IVI9: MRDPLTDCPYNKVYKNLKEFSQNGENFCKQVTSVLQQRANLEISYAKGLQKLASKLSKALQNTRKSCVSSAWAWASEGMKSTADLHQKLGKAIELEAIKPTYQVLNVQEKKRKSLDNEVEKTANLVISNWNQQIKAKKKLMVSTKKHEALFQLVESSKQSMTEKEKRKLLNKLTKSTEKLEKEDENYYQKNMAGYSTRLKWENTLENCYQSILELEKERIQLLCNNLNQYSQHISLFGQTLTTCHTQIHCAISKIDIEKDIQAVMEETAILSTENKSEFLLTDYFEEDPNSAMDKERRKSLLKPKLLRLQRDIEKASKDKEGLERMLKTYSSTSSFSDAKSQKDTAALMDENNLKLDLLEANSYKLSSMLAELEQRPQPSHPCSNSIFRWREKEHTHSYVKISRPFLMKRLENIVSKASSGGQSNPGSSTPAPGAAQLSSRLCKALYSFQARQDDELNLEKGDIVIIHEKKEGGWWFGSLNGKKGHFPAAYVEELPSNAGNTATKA
UniProt Q9NPE3: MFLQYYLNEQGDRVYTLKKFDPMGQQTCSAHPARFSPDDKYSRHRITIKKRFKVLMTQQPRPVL
UniProt Q00653: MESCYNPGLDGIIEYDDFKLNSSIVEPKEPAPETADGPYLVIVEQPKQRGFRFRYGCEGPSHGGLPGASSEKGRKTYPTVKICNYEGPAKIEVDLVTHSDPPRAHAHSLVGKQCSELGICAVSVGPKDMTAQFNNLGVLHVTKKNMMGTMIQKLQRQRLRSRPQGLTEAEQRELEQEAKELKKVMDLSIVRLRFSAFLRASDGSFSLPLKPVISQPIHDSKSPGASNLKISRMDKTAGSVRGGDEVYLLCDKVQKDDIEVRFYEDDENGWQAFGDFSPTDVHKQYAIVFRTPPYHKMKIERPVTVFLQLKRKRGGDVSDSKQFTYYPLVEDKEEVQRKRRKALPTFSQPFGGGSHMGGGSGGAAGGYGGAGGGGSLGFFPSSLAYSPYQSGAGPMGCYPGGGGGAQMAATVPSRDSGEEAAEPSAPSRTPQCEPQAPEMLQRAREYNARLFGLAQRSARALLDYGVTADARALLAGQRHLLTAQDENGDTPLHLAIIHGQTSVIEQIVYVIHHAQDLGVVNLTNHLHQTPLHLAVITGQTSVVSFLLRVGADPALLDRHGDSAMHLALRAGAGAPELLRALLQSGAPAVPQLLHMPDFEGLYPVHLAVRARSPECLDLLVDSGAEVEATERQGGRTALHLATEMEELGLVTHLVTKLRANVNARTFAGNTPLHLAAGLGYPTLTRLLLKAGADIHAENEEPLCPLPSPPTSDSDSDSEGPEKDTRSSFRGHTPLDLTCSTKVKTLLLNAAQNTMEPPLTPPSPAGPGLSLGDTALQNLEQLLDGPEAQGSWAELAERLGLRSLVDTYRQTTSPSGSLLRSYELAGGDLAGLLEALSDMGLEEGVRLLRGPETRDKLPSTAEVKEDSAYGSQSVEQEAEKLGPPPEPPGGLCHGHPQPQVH
UniProt Q9NSY0: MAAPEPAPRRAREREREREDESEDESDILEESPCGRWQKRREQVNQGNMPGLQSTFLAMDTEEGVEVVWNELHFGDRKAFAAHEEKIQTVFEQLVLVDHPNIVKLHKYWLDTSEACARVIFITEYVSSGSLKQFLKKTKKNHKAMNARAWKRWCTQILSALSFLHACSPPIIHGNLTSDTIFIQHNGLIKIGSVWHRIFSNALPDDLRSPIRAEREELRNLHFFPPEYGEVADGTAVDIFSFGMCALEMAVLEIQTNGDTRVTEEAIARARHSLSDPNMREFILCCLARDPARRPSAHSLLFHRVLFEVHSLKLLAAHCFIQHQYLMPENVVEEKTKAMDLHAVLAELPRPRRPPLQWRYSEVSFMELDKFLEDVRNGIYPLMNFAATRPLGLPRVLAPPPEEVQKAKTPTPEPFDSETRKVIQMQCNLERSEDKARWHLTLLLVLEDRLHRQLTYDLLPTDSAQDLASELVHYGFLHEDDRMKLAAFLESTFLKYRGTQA
UniProt Q9NQ35: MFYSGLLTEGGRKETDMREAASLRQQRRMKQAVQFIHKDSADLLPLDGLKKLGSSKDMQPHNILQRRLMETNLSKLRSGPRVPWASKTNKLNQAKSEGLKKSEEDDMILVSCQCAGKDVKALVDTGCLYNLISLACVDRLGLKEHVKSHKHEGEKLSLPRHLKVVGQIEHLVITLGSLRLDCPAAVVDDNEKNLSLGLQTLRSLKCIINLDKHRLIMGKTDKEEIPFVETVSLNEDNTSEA
UniProt Q92859: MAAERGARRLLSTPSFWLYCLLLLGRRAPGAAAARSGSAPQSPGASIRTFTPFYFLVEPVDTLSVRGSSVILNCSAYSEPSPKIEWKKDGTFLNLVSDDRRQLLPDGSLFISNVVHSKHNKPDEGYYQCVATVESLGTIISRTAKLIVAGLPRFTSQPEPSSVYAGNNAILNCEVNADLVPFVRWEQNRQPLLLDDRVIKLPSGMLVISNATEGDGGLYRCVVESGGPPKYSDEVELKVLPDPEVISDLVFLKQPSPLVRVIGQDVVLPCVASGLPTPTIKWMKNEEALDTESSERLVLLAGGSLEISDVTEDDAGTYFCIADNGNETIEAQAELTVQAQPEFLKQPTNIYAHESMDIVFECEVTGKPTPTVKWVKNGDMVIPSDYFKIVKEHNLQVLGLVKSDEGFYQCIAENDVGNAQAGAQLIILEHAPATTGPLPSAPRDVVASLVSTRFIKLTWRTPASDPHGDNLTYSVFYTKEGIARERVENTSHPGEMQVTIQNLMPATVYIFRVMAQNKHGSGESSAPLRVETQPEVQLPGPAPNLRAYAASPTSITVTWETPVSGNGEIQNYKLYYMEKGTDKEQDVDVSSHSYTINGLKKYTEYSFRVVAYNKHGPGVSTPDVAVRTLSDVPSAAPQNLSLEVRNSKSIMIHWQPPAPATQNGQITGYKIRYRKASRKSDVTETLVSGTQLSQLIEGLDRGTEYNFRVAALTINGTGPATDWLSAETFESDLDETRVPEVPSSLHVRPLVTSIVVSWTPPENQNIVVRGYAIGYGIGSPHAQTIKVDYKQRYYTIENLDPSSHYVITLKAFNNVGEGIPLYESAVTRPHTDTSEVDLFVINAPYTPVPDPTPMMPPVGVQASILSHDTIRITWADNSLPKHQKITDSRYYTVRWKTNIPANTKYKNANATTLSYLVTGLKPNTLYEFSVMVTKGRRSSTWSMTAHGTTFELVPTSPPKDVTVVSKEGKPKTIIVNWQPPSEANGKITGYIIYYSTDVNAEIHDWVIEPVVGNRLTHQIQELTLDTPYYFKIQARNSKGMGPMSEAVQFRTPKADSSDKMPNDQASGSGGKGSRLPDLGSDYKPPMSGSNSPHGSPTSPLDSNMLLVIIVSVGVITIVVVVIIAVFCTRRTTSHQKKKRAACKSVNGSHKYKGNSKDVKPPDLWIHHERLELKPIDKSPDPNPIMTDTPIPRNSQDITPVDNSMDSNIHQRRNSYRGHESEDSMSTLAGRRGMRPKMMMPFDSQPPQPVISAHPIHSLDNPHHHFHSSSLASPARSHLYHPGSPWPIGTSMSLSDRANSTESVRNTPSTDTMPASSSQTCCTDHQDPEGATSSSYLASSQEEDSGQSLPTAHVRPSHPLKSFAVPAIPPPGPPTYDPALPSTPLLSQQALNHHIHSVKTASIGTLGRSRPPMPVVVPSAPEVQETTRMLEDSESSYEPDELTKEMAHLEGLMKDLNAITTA
UniProt Q9UHC9: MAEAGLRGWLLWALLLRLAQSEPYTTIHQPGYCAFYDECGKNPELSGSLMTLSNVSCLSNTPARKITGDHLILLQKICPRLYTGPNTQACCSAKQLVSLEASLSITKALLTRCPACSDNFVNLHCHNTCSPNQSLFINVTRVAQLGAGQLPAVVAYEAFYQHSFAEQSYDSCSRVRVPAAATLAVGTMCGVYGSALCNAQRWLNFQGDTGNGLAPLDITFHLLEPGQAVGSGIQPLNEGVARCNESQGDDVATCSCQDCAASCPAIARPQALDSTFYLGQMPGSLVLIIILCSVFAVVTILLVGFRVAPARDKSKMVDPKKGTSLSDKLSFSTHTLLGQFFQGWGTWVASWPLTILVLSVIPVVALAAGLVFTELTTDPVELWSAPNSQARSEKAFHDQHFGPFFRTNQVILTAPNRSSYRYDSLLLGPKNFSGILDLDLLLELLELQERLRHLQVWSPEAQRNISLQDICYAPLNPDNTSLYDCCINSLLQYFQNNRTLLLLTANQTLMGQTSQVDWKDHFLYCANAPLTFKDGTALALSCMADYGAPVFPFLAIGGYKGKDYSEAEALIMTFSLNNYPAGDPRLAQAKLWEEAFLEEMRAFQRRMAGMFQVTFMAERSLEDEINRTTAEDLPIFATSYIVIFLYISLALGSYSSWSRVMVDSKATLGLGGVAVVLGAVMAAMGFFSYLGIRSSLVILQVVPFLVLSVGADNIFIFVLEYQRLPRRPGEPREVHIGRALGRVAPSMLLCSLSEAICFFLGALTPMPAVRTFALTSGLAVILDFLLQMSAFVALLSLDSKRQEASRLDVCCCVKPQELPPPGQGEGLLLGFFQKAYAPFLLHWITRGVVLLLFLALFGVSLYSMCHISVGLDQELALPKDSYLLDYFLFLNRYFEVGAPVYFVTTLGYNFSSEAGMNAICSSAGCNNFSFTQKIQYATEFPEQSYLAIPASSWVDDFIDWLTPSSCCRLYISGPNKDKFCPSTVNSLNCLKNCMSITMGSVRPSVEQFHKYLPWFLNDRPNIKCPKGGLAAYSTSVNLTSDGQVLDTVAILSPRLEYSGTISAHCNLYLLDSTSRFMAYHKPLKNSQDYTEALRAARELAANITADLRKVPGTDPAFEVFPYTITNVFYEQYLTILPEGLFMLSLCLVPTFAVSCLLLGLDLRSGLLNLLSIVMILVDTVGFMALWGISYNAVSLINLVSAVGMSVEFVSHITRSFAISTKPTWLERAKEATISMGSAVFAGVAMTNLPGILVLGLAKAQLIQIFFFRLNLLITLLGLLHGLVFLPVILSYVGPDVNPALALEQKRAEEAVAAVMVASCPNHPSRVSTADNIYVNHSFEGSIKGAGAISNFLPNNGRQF
UniProt P78316: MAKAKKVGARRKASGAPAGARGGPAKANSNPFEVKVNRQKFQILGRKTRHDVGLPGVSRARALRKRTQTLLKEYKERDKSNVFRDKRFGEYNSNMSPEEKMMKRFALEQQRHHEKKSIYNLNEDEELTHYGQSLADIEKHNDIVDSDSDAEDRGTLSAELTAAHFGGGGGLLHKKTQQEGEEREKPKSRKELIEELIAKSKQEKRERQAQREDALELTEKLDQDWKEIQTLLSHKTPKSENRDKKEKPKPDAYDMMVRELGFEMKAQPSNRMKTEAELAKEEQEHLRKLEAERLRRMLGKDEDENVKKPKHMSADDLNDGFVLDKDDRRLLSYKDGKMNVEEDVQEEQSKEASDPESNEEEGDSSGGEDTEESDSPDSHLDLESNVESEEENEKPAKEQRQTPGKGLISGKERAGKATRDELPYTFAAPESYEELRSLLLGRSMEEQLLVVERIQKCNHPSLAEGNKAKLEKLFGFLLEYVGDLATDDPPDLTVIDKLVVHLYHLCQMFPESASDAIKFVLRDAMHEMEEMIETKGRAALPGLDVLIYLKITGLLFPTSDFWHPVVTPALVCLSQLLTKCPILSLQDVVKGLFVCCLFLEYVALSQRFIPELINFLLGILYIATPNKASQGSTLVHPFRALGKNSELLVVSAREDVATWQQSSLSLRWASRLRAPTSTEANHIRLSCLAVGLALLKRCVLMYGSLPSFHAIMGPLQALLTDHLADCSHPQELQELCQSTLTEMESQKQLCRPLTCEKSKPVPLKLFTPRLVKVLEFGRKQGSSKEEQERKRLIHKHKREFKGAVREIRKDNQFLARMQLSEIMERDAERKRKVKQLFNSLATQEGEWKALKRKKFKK
UniProt Q9UQ49: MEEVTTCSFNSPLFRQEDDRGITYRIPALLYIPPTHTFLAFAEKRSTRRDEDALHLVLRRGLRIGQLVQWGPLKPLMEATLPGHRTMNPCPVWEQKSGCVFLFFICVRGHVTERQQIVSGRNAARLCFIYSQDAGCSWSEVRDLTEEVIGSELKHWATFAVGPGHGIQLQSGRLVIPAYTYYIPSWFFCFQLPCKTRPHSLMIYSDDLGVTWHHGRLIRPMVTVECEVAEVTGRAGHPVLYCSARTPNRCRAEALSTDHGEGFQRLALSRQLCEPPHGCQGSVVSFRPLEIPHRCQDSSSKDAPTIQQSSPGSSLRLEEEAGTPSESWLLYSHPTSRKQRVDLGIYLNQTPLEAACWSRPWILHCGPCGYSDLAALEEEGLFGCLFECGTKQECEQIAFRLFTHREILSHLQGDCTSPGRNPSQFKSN
UniProt O60936: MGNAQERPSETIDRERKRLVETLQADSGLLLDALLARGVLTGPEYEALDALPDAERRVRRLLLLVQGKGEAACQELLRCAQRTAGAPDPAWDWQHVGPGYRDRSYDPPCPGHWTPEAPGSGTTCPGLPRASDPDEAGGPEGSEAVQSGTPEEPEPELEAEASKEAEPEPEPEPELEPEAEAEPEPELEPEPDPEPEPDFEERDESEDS

Legend:
Experiment in all cases: log2 fold change, soluble protein after heating vs DMSO (PISA); higher = thermal stabilisation; K562 cells, 10 uM, 30 min; active = over 0.2 and 3.5 SD of the protein, either way, in both replicates (recomputed)
[1] = compound: C#Cc1cccc(Nc2ncnc3cc(OCCOC)c(OCCOC)cc23)c1 [erlotinib]
Summary of the method: (§1)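 For each measurement, 10 μM compound was applied for 30 min to K562 cells at 2×10^6 cells/mL. Aliquots were heated for 3 min across 48°C-58°C, pooled, and extracted in PBS with 0.5% NP-40 at 4°C; the supernatant after 21,000xg for 90 min was soluble protein. This was quantified by TMTpro 16plex LC-MS/MS with channel sums equalised, and thermal stability was reported relative to control samples from duplicates, on a log2 fold-change scale.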

[2] = compound: C/C(=N\NC(=O)C1=CC(=CC=C1)S(=O)(=O)N2CCOCC2)/C3=C(C=CC(=C3)Cl)O
Summary of the method: as §1

[3] = compound: C1=CC(=CC=C1C2=NC3=C(N2)C=C(C=C3)C(=O)N)OC4=CC=C(C=C4)Cl
Summary of the method: as §1

[4] = compound: C1=CC2=C(C=CC(=C2)/C=C\3/C(=O)NC(=NCC4=CC=CS4)S3)N=C1
Summary of the method: as §1

[5] = compound: C1=CC=C(C=C1)C2=NC(=C(N2)C3=CC=NC=C3)C4=CC(=C(C=C4)Cl)O
Summary of the method: as §1

[6] = compound: C1=CC=C2C(=C1)C3=NNC4=CC=CC(=C43)C2=O
Summary of the method: as §1

[7] = compound: C1=CC2=NC=CN=C2C=C1/C=C/3\C(=O)NC(=O)S3
Summary of the method: as §1

[8] = compound: C1CCN(C1)C(=O)NC2=CC=CC(=C2)NC3=NC=C(C(=N3)NCCC4=CN=CN4)Br
Summary of the method: as §1

[9] = compound: C1CN(CCC1(CC2=CC=C(C=C2)Cl)N)C3=NC=NC4=C3C=CN4
Summary of the method: as §1

[10] = compound: C1=CC(=C(C=C1Cl)C2=NC3=NC=CN=C3C(=N2)NC4=CC=NC=C4)F
Summary of the method: as §1

Measured: log2 fold change

NOSTRIN isoform 4 (UniProt Q8IVI9)
inactive: [1] -0.05 | [2] 0.002 | [3] -0.07 | [4] 0.178 | [5] 0.186 | [6] -0.214

NOTCH2 (UniProt Q04721)
inactive: [1] 0.262 | [2] -0.106 | [3] 0.495 | [4] 0.17 | [7] -0.179 | [6] -0.176 | [8] 0.092 | [9] -0.076

NFKBIA (UniProt P25963)
inactive: [1] -0.034 | [3] 0.286

NRSN2 (UniProt Q9GZP1)
inactive: [1] -0.037 | [10] -0.075 | [3] -0.061 | [8] -0.12 | [9] 0.013

NOMO3 (UniProt P69849)
inactive: [1] -0.001 | [10] -0.131 | [3] 0.022 | [7] 0.072

NOP10 (UniProt Q9NPE3)
inactive: [1] -0.122 | [3] 0.164 | [7] 0.007 | [5] -0.142

NOTCH1 (UniProt P46531)
inactive: [10] -0.016

NSA2 (UniProt O95478)
inactive: [10] -0.333 | [7] -0.084

NOLC1 isoform 3 (UniProt Q14978)
inactive: [1] 0.002 | [3] 0.183

NFE2L1 (UniProt Q14494)
inactive: [1] -0.161 | [10] -0.263 | [3] 0 | [8] -0.057 | [9] 0.281

NOL4L (UniProt Q96MY1)
inactive: [1] -0.004 | [10] 0.107 | [3] -0.2 | [8] -0.057 | [9] 0.13

NOL6 (UniProt Q9H6R4)
inactive: [2] -0.032 | [10] -0.197 | [4] -0.17 | [7] -0.006 | [5] 0.026 | [6] -0.113 | [8] 0.059 | [9] 0.043

NR2C1 (UniProt P13056)
inactive: [2] 0.033 | [10] -0.023 | [4] -0.038 | [7] 0.197 | [6] 0.017

NFKB2 (UniProt Q00653)
inactive: [2] -0.292 | [10] -0.005 | [4] 0.198 | [7] 0.091 | [5] -0.096 | [6] -0.336 | [8] -0.178 | [9] -0.473

NGDN (UniProt Q8NEJ9)
inactive: [5] -0.195 | [8] 0.183 | [9] -0.168

NIPSNAP2 (UniProt C9J7B1)
inactive: [2] -0.171 | [4] -0.16 | [7] 0.057 | [6] -0.138

NRBP2 (UniProt Q9NSY0)
inactive: [1] 0.146 | [3] -0.128 | [5] -0.024

NOL9 (UniProt Q5SY16)
inactive: [1] 0.179 | [3] 0.068

NMNAT3 (UniProt Q96T66)
inactive: [1] 0.342 | [10] 0.071 | [3] -0.031 | [7] 0.05

NRIP3 (UniProt Q9NQ35)
inactive: [2] -0.159 | [4] -0.061 | [6] -0.142

NEO1 (UniProt Q92859)
inactive: [2] -0.378 | [4] 0.371 | [5] -0.051 | [6] -0.286 | [8] -0.145 | [9] 0.223

NSD1 (UniProt Q96L73)
inactive: [1] 0.022 | [2] -0.154 | [3] 0.022 | [4] -0.178 | [7] 0 | [6] -0.032

NPC1L1 (UniProt Q9UHC9)
inactive: [2] 0.006 | [4] 0.073 | [7] 0.143 | [6] -0.02 | [8] 0 | [9] -0.033

NKIRAS2 (UniProt Q9NYR9)
inactive: [1] 0.266 | [10] -0.002 | [3] -0.072 | [8] -0.049 | [9] -0.167

NFATC1 (UniProt O95644)
inactive: [10] 0

NOP14 (UniProt P78316)
inactive: [2] 0.042 | [10] -0.124 | [4] -0.163 | [6] -0.028 | [8] 0.069 | [9] -0.06

NEU3 isoform 2 (UniProt Q9UQ49)
inactive: [1] 0.164 | [3] 0

NMRK1 (UniProt Q9NWW6)
inactive: [1] -0.188 | [3] 0.16

NME4 (UniProt O00746)
inactive: [1] -0.147 | [3] 0.03 | [5] -0.049

NLRX1 (UniProt Q86UT6)
inactive: [1] -0.012 | [10] 0.063 | [3] 0.046 | [8] 0.03 | [9] 0.038

NPRL3 (UniProt Q12980)
inactive: [1] -0.115 | [3] -0.177

NOC3L (UniProt Q8WTT2)
inactive: [2] -0.435 | [10] -0.198 | [4] 0.195 | [7] 0.066 | [6] -0.218

NOL3 isoform 3 (UniProt O60936)
inactive: [10] -0.056 | [5] 0.067 | [8] 0.061 | [9] 0.076

NFKB1 isoform 2 (UniProt P19838)
inactive: [2] 0.152 | [10] -0.132 | [3] 0.003 | [4] -0.009 | [7] 0.003 | [5] 0.078 | [6] 0.01 | [8] -0.012 | [9] -0.085
